Experimental data from PubChem BioAssay AID588499 (NMMLSC, 2011).
In all, about 360,000 compounds went through this assay and about 610 (0.17%) were called active. The inconclusive results got no clear call from the source; some entries with a clear call stand among them for comparison. No stated cut-off is given here; in the data, active means inhibition above about 30%; inconclusive means no clear call, values can overlap the other calls; inactive means below that.

Each compound was assayed on Botulinum neurotoxin type A light chain protease (Clostridium botulinum A str. ATCC 3502) (assay: blockers of BoNT/A LC substrate cleavage – biochemical, flow cytometry, MLPCN library, primary screen (AID 588499; further: plate controls were buffer without enzyme for full effect and enzyme alone for no effect)). Conditions: multiplex microsphere protease substrate cleavage, at 10 µM, stronger effect = higher value.

SMILES	inhibition
CCCCOC(=O)CSc1nnc(-c2cc(OC)c(OC)c(OC)c2)o1	inconclusive: -0.4%
O=c1oc2ccccc2n1Cc1cccc(Cl)c1	inconclusive: -10.8%
COC(=O)c1c(C)[nH]c(C(=O)/C=C/c2ccccc2F)c1C	inconclusive: -53.8%
CCCCCN(C(=O)CCC(=O)OCC(=O)NC1CCC(C)CC1)c1c(N)n(CCCC)c(=O)[nH]c1=O (configuration not stated)	inconclusive: -1.1%
O=c1cc(C(F)(F)F)nc(-c2ccccc2OC(F)(F)F)[nH]1	inconclusive: 7.1%
CCOc1ccc(S(=O)(=O)Nc2cc(SCC(=O)O)c(O)c3ccccc23)cc1	inactive: -1.7%
CC(C)C(=O)Nc1ccc2c(c1)nc(CCN1CCN(c3ccccc3)CC1)n2C	inconclusive: 11.7%
Cc1nc(-c2ccccc2)cc(N2CCCC2)n1	inconclusive: 0.4%
CCN(CC(=O)Nc1ccc(OC)cc1)C(=O)Cc1ccsc1	inconclusive: 3.6%
CCC(=O)Nc1sccc1C(=O)OC	inconclusive: 2.2%
Nc1nc(NCC2CCCO2)nc(Nc2ccccc2F)c1[N+](=O)[O-] (configuration not stated)	inconclusive: -7.5%
Cn1nnnc1Sc1ncnc2scc(-c3ccc(F)cc3)c12	inactive: 1.1%
O=C(NC1CCCCC1)c1sc(N2CCOCC2)nc1-c1ccccc1	inactive: 0.3%
[O-][n+]1ccc(OCc2ccccc2)cc1	inconclusive: -7%
O=[N+]([O-])c1ccc(C2CNC(c3ccccc3)O2)cc1 (configuration not stated)	inconclusive: -0.6%
Nc1nc(SCCN2C(=O)c3ccccc3C2=O)n[nH]1	inconclusive: 3.4%
O=C(Nc1nnc(COc2ccccc2F)s1)Nc1ccccc1F	inconclusive: -3.6%
CC1=C(C(=O)Nc2ccc(Cl)cc2)C(c2ccco2)NC(=O)N1 (configuration not stated)	inconclusive: 1.1%
CC1CC(CC(C)C(=O)Nc2nncs2)C(=O)O1 (configuration not stated)	inconclusive: 0.6%
O=C(CSc1nnnn1C1CCCCC1)N1c2ccccc2Sc2ccccc21	inconclusive: 5.9%
Cc1nc(SCC(=O)NCc2ccccc2)c2oc3ccccc3c2n1	inconclusive: 1.1%
COCCn1c(SCc2csc(-c3ccccc3)n2)nc2ccccc21	inconclusive: -1.3%
Cc1nc(/C(N)=N/OC(=O)c2c(-c3ccccc3Cl)noc2C)cs1	inconclusive: -3.9%

SMILES	inhibition
Cc1cc(NC(=O)CN2C(=O)[C@@H]3[C@H](C2=O)[C@@H]2C[C@H]3C(Br)C2Br)no1 (some centres not stated)	inconclusive: -30%
Cc1nc2ccccn2c1-c1ccnn1S(=O)(=O)c1ccc(F)cc1	inconclusive: 2.3%
Cc1ccc(CNC(=O)CN(C)S(=O)(=O)c2ccc(F)cc2)cc1	inactive: 0.7%
Cc1cccc(OCCC(=O)NCC(c2ccco2)N2CCCCC2)c1 (configuration not stated)	inconclusive: 0%
O=C(NC1CCCCC1)N(Cc1cc2cc3c(cc2[nH]c1=O)OCCO3)CC1CCCO1 (configuration not stated)	inconclusive: 8.6%
COc1cccc2cc(C(=O)CS(=O)(=O)c3ccc(Cl)cc3)c(=O)oc12	inactive: 0.7%
O=C(Nc1ccc(OCc2ccccc2)cc1)c1cccs1	inactive: 1.5%
COC(=O)c1ccccc1NC(=S)NC(=O)COc1ccccc1Cl	inconclusive: -2.5%
CCN1C(=O)C(=O)N(CC(=O)N2CCC(C)Sc3ccccc32)C1=O (configuration not stated)	inactive: -0.2%
COc1ccc(-c2noc(CCC(N)=O)n2)cc1OC	inconclusive: -9.7%
Cc1cc(S(=O)(=O)Nc2cccnc2)c(C)s1	inactive: -0.6%
Cc1cc(C)n(CC(O)COCc2ccco2)n1 (configuration not stated)	inconclusive: -2.1%
COc1ccc(CCNC(=O)CSc2nnc(Cn3c(=O)sc4ccccc43)n2C)cc1OC	inconclusive: -2%
O=C(NCc1ccco1)/C(=C\c1cccs1)NC(=O)c1ccco1	inactive: 0%
CCN(CC)C1=CC(=O)OC12CCCCC2	inconclusive: -1.1%
O=C(NC1CCCCC1)C(c1cccs1)N(C(=O)Cc1c[nH]c2ccccc12)c1ccc(F)cc1 (configuration not stated)	inconclusive: -1.9%
COc1ccc(C2=NO[C@@H]3C(=O)N(c4c(C)cccc4C)C(=O)[C@H]23)cc1OC	inconclusive: -0.3%
COc1ccc(-c2cc3nc4n(c(=O)c3s2)CCC4)cc1	inconclusive: 1.6%
NNC(=O)CN1C(c2ccccc2)=Nc2ccc(Br)cc2C1c1ccccc1 (configuration not stated)	inactive: 0.1%
CCS(CC)=NS(=O)(=O)c1ccc(NC(C)=O)cc1	inactive: 1.9%
Fc1cnc(Cl)nc1N1CCN(c2ccccc2)CC1	inconclusive: -28.8%
O=C(O)COCC(=O)Nc1cc(C(F)(F)F)cc(C(F)(F)F)c1	inconclusive: -0.6%
CCC(C)C(N=C1NS(=O)(=O)c2ccccc21)C(=O)N1CCC(C)CC1 (configuration not stated)	inactive: -2.7%

Rewritten as comma-separated lines: 2 of the compounds above
SMILES,inhibition
CC1CC(CC(C)C(=O)Nc2nncs2)C(=O)O1 (configuration not stated),inconclusive: 0.6%
O=C(CSc1nnnn1C1CCCCC1)N1c2ccccc2Sc2ccccc21,inconclusive: 5.9%

Continued.

SMILES	inhibition
COc1cccc(NC(=O)CSc2nc3ccccc3c(=O)n2CCCC(=O)N2CCCC2)c1	inconclusive: -2.1%
Cc1cc(C)cc(OCC(=O)Nc2cccc(C(=O)O)c2)c1	inconclusive: -9.2%
O=C(NCCS(=O)(=O)N1CCCCC1)c1ccc2c(c1)OCO2	inactive: 1.2%
CN(Cc1ccccc1)S(=O)(=O)c1ccc(Cl)c(C(=O)NCCCN2CCCC2=O)c1	inconclusive: 0.3%
O=C(Nc1ccc(C(=O)N2CCCCC2)cc1)c1ccccc1Br	inactive: -2.7%
CC(C)(C)c1ccc(-c2nc(C#N)c(NCc3cccnc3)o2)cc1	inactive: -3.3%
O=C(NC1CCCCCC1)C1CCCN(c2ncccn2)C1 (configuration not stated)	active: 78.7%
N#Cc1cccc(NC(=O)CSc2ccc3c4c(cccc24)C(=O)c2ccccc2-3)c1	active: 43.6%
Cc1cc(C)n(-c2ccc(C(=O)OCC(=O)Nc3ccc(Cl)c(S(=O)(=O)N(C)C)c3)cc2)n1	inconclusive: -6.6%
NNC(=O)c1nn(-c2ccc(Cl)cc2)ccc1=O	inconclusive: -1.7%
O=C(C1CCCN(S(=O)(=O)Cc2ccccc2)C1)N1CCc2ccccc21 (configuration not stated)	inactive: 0.3%
CCOc1ccc2nc3ccc4[nH]onc4c3c2c1	inconclusive: 17.2%
Cc1ccc(N(CC2CO2)S(=O)(=O)c2ccccc2[N+](=O)[O-])cc1 (configuration not stated)	inactive: 1.5%
O=C(Nc1ccc(Cl)cc1)c1cccnc1N1CCCCC1	inconclusive: 1%
Cc1cc2ccccc2n1CCNC(=O)Cc1cccc2ccccc12	active: 55.2%
Cc1cccc(-n2cnc3c(c2=O)c2nc4ccccc4nc2n3Cc2ccco2)c1	inactive: 3.1%
Cc1[nH]c2ccc(Br)cc2c(=O)c1CN1CCCCC1	inconclusive: 60.6%
CC(=O)Nc1cc(C(F)(F)F)ccc1OCCOc1ccccc1	inconclusive: 0.4%
O=C(NCCc1ccccc1)C(=O)NCCC1CCCCN1S(=O)(=O)c1ccccc1 (configuration not stated)	inconclusive: -0.5%
Cc1cc2nc3c(nc2cc1C)C1(C(=O)O)CCC3(C)C1(C)C (configuration not stated)	inactive: 1.5%
O=S(=O)(c1ccc(-c2ccon2)s1)N1CCN(CCN2CCOCC2)CC1	inconclusive: -6.1%
N#CCCn1nc(-c2ccccc2)cc1Nc1ccccc1NC(=O)c1cccs1	inconclusive: -6.1%
CC(OC(=O)Cc1ccccc1F)C(=O)Nc1ccc(Cl)cn1 (configuration not stated)	inconclusive: -1.2%

Three consecutive compounds already listed, for reference:
SMILES	inhibition
O=C(NCCc1ccccc1)C(=O)NCCC1CCCCN1S(=O)(=O)c1ccccc1 (configuration not stated)	inconclusive: -0.5%
Cc1cc2nc3c(nc2cc1C)C1(C(=O)O)CCC3(C)C1(C)C (configuration not stated)	inactive: 1.5%
O=S(=O)(c1ccc(-c2ccon2)s1)N1CCN(CCN2CCOCC2)CC1	inconclusive: -6.1%

(cont.)

SMILES	inhibition
CCN(CC(=O)NCc1ccc(F)cc1)C(=O)C(C)Oc1cccc(Cl)c1 (configuration not stated)	inactive: -0.4%
CCOC(=O)C1=NNC(C(=O)c2ccccc2)C1c1ccc(Cl)cc1 (configuration not stated)	inconclusive: -48.9%
COC(=O)C(OC(=O)c1ccc(OC)cc1)C(=O)OC	inconclusive: -7.3%
Cc1onc(-c2ccccc2Cl)c1C(=O)NCCn1ccc2ccccc21	active: 81.2%
Cc1cc(-c2cccs2)nc(-n2cccc2)n1	inconclusive: 10%
O=C(NCC1CCCO1)c1[nH]c(C(F)(F)F)nc1-c1ccccc1 (configuration not stated)	inactive: -0.7%
C[C@H](O)[C@@H]1C(=O)N2CCc3ccc(N4CCN(C)CC4)cc3[C@@H]2C[C@@H]1N(C)C(=O)NC1CCCCC1	inactive: -0.4%
Cc1cc(Nc2ccccc2)n2nc(C)c(-c3ccccc3)c2n1	inconclusive: 4.9%
Cn1nc(C(C)(C)C)cc1NC(=O)C1(C)CCN1C(=O)c1ccccc1CCc1ccccc1 (configuration not stated)	inactive: 0%
CCOc1ccc(NC(=O)CSc2nnc(CCNC(=O)c3ccc(OC)cc3)n2C)cc1	inconclusive: -1.2%
CCc1nnc(NC(=O)C2CCCN(c3nc(C)cc(C)n3)C2)s1 (configuration not stated)	inactive: 2.1%
COc1ccc(N2C(=O)c3ccc(C(=O)Nc4ccccc4OC)cc3C2=O)cc1	inactive: 4.3%
CCN(C(=O)COC(=O)c1sccc1C)c1c(N)n(Cc2ccccc2)c(=O)[nH]c1=O	inconclusive: 2.4%
CCCCOc1ccc(C(=O)Nn2cnnc2)cc1	inconclusive: -0.4%
CCCCN(Cc1cc2cc(OC)ccc2[nH]c1=O)S(=O)(=O)c1ccc(C)cc1	inactive: 0%
O=C(O)CCc1nn2cc(-c3ccccc3)nc2[nH]c1=O	inactive: -0.2%
Cc1ccccc1C(=O)N[C@H](C(=O)OCC(=O)NC1CC1)C(C)C	inactive: -0.4%
O=C(COC(=O)C12CC3CC(CC(C3)C1)C2)Nc1ncc(Cl)cc1Cl	inconclusive: 6.8%
O=C(CCn1nnc2ccccc21)Nc1nnc(COc2ccc(F)cc2)s1	inconclusive: 0.4%
Cc1c(C(O)CN2CCN(Cc3ccc4c(c3)OCO4)CC2)c2ccccc2n1C (configuration not stated)	inconclusive: -2.3%
CC(OC(=O)CCc1ccccc1)C(=O)Nc1ncc(Cl)cc1Cl (configuration not stated)	inactive: 0.1%
CCSCc1nnc(SCC(=O)Nc2ccc(OC)cc2)n1C	inactive: 0.4%
CC(C)c1ccc(NC(=O)C2=NNC(=O)CC2)cc1	inconclusive: -46.1%

Taken from above:
inhibition with `CCN(CC)C1=CC(=O)OC12CCCCC2` reads inconclusive: -1.1%
inhibition with `Cc1cc(-c2cccs2)nc(-n2cccc2)n1` reads inconclusive: 10%
